Laboratory results taken from PMC11729909, “FOXP1 phosphorylation antagonizes its O-GlcNAcylation in regulating ATR activation in response to replication stress” (The EMBO Journal, 2024).
No constants are given. Whether binding was seen depends on the method and setting. Binding seen in cells or lysates may run through a third protein. These calls come from enrichment with a bait or labelling near it, and not all partners need be listed.

Protein sequences, listed by entry. Tags and fused reporters are not part of them.
UniProt Q13535: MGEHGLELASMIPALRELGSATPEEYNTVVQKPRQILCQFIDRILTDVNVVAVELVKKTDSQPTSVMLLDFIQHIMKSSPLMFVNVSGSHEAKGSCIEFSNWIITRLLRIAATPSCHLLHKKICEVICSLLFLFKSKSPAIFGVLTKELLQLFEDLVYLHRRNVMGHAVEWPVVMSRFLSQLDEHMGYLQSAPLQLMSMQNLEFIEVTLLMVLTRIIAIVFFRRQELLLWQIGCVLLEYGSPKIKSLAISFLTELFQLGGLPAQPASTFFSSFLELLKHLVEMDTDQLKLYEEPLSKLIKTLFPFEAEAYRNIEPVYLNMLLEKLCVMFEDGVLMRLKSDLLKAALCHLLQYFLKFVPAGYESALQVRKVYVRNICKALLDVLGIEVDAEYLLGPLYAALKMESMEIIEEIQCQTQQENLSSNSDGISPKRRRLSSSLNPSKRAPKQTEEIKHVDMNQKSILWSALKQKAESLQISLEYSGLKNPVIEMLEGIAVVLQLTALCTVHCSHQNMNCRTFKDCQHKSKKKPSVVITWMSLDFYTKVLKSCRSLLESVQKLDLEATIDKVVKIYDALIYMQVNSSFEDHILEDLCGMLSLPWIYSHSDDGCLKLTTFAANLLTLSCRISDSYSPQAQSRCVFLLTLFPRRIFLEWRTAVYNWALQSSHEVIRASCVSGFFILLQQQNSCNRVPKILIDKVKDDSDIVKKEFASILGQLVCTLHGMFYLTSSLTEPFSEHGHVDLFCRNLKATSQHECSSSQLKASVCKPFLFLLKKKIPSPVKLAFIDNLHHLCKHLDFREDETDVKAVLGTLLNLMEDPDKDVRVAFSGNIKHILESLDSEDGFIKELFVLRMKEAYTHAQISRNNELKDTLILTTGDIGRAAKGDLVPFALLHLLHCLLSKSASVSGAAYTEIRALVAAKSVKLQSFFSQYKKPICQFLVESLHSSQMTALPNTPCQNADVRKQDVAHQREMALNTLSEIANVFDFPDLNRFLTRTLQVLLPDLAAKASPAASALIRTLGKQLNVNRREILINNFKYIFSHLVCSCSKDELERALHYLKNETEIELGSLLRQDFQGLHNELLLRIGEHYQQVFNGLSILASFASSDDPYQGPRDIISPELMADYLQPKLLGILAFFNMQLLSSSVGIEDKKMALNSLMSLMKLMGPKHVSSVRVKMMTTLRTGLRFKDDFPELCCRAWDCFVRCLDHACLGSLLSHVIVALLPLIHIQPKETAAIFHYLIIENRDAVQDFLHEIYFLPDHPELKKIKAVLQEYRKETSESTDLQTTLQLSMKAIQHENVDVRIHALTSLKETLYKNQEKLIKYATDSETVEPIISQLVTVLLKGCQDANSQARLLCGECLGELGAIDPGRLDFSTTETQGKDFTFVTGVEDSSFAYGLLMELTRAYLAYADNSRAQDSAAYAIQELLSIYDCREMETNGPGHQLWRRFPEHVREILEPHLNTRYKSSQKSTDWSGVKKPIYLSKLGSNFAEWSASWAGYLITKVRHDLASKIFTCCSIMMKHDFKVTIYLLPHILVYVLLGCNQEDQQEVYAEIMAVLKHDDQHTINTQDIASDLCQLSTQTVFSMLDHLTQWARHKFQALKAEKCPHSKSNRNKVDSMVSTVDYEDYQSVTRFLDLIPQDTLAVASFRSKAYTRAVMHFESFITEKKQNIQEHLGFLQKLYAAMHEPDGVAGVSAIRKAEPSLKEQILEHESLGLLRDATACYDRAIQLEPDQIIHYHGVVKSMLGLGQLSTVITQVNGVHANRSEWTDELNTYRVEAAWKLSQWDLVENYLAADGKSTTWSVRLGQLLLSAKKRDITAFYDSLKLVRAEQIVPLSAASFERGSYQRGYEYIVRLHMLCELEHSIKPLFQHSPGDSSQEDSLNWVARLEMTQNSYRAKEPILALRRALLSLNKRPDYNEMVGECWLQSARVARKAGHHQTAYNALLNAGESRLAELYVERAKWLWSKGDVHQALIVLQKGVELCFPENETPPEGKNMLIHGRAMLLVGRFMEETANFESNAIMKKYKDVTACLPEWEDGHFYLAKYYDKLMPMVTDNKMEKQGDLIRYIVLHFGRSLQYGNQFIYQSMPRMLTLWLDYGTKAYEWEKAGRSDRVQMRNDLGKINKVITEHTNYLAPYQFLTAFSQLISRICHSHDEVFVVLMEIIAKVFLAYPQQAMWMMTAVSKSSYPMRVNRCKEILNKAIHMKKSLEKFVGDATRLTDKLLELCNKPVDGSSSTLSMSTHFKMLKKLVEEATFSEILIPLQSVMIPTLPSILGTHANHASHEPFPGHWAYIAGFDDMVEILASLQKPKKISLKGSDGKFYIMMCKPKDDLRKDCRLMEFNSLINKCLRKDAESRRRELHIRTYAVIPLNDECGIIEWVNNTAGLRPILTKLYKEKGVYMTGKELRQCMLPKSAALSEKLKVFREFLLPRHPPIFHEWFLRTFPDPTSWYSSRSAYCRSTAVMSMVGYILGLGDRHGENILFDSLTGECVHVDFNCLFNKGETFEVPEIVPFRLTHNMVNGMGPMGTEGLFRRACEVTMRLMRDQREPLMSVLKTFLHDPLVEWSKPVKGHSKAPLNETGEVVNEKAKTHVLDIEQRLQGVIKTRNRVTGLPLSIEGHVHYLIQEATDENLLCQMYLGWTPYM

Molecular target: ATR (endogenous) (human (endogenous in HEK293T and H1975)) (UniProt Q13535)
Assay: affinity purification with mass spectrometry; immunoprecipitation with an ATR-specific antibody from HEK293T cells, immunoprecipitates analysed by mass spectrum

binding: binds
B1: GST-tagged FOXP1 (wild type, full length) (natural protein, human, UniProt Q9H334 1-677, looked up)
chain: MMQESGTETKSNGSAIQNGSGGSNHLLECGGLREGRSNGETPAVDIGAADLAHAQQQQQQALQVARQLLLQQQQQQQVSGLKSPKRNDKQPALQVPVSVAMMTPQVITPQQMQQILQQQVLSPQQLQVLLQQQQALMLQQQQLQEFYKKQQEQLQLQLLQQQHAGKQPKEQQQVATQQLAFQQQLLQMQQLQQQHLLSLQRQGLLTIQPGQPALPLQPLAQGMIPTELQQLWKEVTSAHTAEETTGNNHSSLDLTTTCVSSSAPSKTSLIMNPHASTNGQLSVHTPKRESLSHEEHPHSHPLYGHGVCKWPGCEAVCEDFQSFLKHLNSEHALDDRSTAQCRVQMQVVQQLELQLAKDKERLQAMMTHLHVKSTEPKAAPQPLNLVSSVTLSKSASEASPQSLPHTPTTPTAPLTPVTQGPSVITTTSMHTVGPIRRRYSDKYNVPISSADIAQNQEFYKNAEVRPPFTYASLIRQAILESPEKQLTLNEIYNWFTRMFAYFRRNAATWKNAVRHNLSLHKCFVRVENVKGAVWTVDEVEFQKRRPQKISGNPSLIKNMQSSHAYCTPLNAALQASMAENSIPLYTTASMGNPTLGNLASAIREELNGAMEHTNSNESDSSPGRSPMQAVHPVHVKEEPLDPEEAEGPLSLVTTANHSPDFDHDRDYEDEPVNEDME
notes: FOXP1, human, full length; Vector pGEX-4T-1; also called GST-FOXP1; pGEX-4T-1-FOXP1; source: E. coli, purified
